Several values for one entry are separate records, joined by “and”; a condition that tells them apart may be missing. Equal values may be shown once. This is one part of the list. Further columns of the screen follow, without active or inactive calls. The list favours compounds with an active or inconclusive main result. The note in brackets gives the kind of curve behind each potency; many fits are weak.
Experiment: qHTS Assay for Modulators of Lamin A Splicing
Conditions: HeLa LMNA splicing GFP/RFP minigene ratio, 48 h
In short: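 S3 HeLa cells stably expressing lamin A-EGFP splicing minigene plus DsRed2, 600 cells/well, 48 h compound exposure at 37C. Laser-scanning cytometry; analysed as GFP (500-530 nm)/RFP (575-640 nm) total intensity ratio; 0.5% DMSO vehicle.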

[1] = measured here: RFP viability control channel
[2] = measured here: GFP splicing reporter channel

Row | Structure (SMILES) | AC50 [1] | AC50 [2]
1 | O=C(c1ccccc1)n1ccn(-c2ccccc2)c1=S | 15.8 µM [rising, partial curve] | –
2 | Cn1nc(C(C)(C)C)cc1C(=O)Nc1nc2c(s1)C(=O)CC(C)(C)C2 | 3.55 µM [falling, single point] | 3.55 µM [falling, single point]
3 | Cc1ccc(-c2nnn(CC(=O)N(Cc3cccs3)C(C(=O)NC3CCCC3)c3ccncc3)n2)cc1 (configuration not stated) | 17.8 µM [rising, single point] | 11.2 µM [falling, partial curve]
4 | N=c1n(CCN2CCOCC2)c2ccccc2n1CC(=O)c1ccc(Cl)c(Cl)c1 | 22.4 µM [falling, partial curve] | 20 µM [falling, single point]
5 | Cc1cc(C)cc(NC(=O)CSc2cc(C(=O)c3nccn3C)c3ccccc3n2)c1 | 1.12 µM [rising, partial curve, poor fit] | 0.355 µM [rising, partial curve, poor fit]
6 | CC(C)COCC(CN(Cc1ccccc1)c1ccccc1)N1CCCC1 (configuration not stated) | 4.47 nM [falling, full curve, poor fit] and 1.12 µM [falling, partial curve, poor fit] | 22.4 µM [falling, single point] and 22.4 nM [falling, full curve, poor fit] and 891 nM [falling, partial curve]
7 | CC1=C(Sc2nc3ccccc3[nH]2)C(=O)NC(C)(C)C1 | – | 5.62 µM [rising, single point]
8 | O=C(Nc1ccc(F)cc1)C(c1ccccc1)N1CCN(S(=O)(=O)c2c(F)cccc2F)CC1 (configuration not stated) | 35.5 µM [rising, single point] | –
9 | CCOC(=O)c1cnc(N2CCN(c3cccc(C)c3C)CC2)c2ccccc12 | – | 10 µM [falling, partial curve, poor fit]
10 | O=C(NNc1cc(Cl)ccc1Cl)c1cccnc1Cl | – | 10 µM [rising, partial curve]
11 | Cc1ccc(NCC(=O)Nc2cccc(S(=O)(=O)N(C)C)c2)c(Cl)c1 | 20 µM [rising, single point] | –
12 | COc1ccc(-c2nc3c(c4c2C[C@H](c2ccccc2)OC4)CN(S(=O)(=O)c2ccc(Cl)c4nonc24)CC3)c(C)c1 | 2 µM [falling, partial curve] | 4.47 µM [falling, partial curve, poor fit]
13 | CCOc1ccccc1N(C(=O)c1snc(C(N)=O)c1N)C(C(=O)NCCC(C)C)c1ccco1 (configuration not stated) | 22.4 µM [rising, single point] | –
14 | CCCCOc1ccc(OC(=O)c2cccnc2)cc1 | – | 6.31 µM [falling, full curve]
15 | COc1ccc(C)cc1N(C(=O)c1cccc(F)c1)c1nc2ccccc2s1 | 14.1 µM [rising, partial curve, poor fit] | –
16 | COc1ccccc1NC1=C(N2CCCCC2)C(=O)c2ccccc2C1=O | – | 5.62 µM [falling, full curve]
17 | Cc1ccc2nc(NNC(=O)c3ccc(S(=O)(=O)N4CCc5ccccc5C4)cc3)sc2c1 | 4.47 µM [rising, full curve, poor fit] | 0.316 µM [falling, full curve, poor fit]

Some of the entries so far, with tabs:
Row	Structure (SMILES)	AC50 [1]	AC50 [2]
3	Cc1ccc(-c2nnn(CC(=O)N(Cc3cccs3)C(C(=O)NC3CCCC3)c3ccncc3)n2)cc1 (configuration not stated)	17.8 µM [rising, single point]	11.2 µM [falling, partial curve]
4	N=c1n(CCN2CCOCC2)c2ccccc2n1CC(=O)c1ccc(Cl)c(Cl)c1	22.4 µM [falling, partial curve]	20 µM [falling, single point]
5	Cc1cc(C)cc(NC(=O)CSc2cc(C(=O)c3nccn3C)c3ccccc3n2)c1	1.12 µM [rising, partial curve, poor fit]	0.355 µM [rising, partial curve, poor fit]
6	CC(C)COCC(CN(Cc1ccccc1)c1ccccc1)N1CCCC1 (configuration not stated)	4.47 nM [falling, full curve, poor fit] and 1.12 µM [falling, partial curve, poor fit]	22.4 µM [falling, single point] and 22.4 nM [falling, full curve, poor fit] and 891 nM [falling, partial curve]
7	CC1=C(Sc2nc3ccccc3[nH]2)C(=O)NC(C)(C)C1	–	5.62 µM [rising, single point]
8	O=C(Nc1ccc(F)cc1)C(c1ccccc1)N1CCN(S(=O)(=O)c2c(F)cccc2F)CC1 (configuration not stated)	35.5 µM [rising, single point]	–
9	CCOC(=O)c1cnc(N2CCN(c3cccc(C)c3C)CC2)c2ccccc12	–	10 µM [falling, partial curve, poor fit]
10	O=C(NNc1cc(Cl)ccc1Cl)c1cccnc1Cl	–	10 µM [rising, partial curve]
11	Cc1ccc(NCC(=O)Nc2cccc(S(=O)(=O)N(C)C)c2)c(Cl)c1	20 µM [rising, single point]	–
12	COc1ccc(-c2nc3c(c4c2C[C@H](c2ccccc2)OC4)CN(S(=O)(=O)c2ccc(Cl)c4nonc24)CC3)c(C)c1	2 µM [falling, partial curve]	4.47 µM [falling, partial curve, poor fit]

Following part:

Row | Structure (SMILES) | AC50 [1] | AC50 [2]
18 | COc1ccc([N+](=O)[O-])cc1/C=N/Nc1nc(N2CCCCC2)nc(N2CCCCC2)n1 | – | 0.891 µM [rising, single point]
19 | O=S(=O)(Nc1nc2ccccc2nc1N1CCc2ccccc2C1)c1ccc(Cl)cc1 | 17.8 µM [rising, single point] | –
20 | O=C(COC(=O)c1cc(Br)ccc1O)Nc1cc(S(=O)(=O)N2CCCC2)ccc1Cl | – | 0.0112 µM [rising, full curve, poor fit]
21 | COc1ccccc1NC(=O)N1CCc2[nH]c3ccc(F)cc3c2C1 | – | 12.6 µM [rising, single point]
22 | CC(=O)C1=C(c2ccc(F)cc2)N(C(C)=O)n2c(nnc2C2CCCCC2)S1 | 2.51 µM [falling, partial curve] | 2 µM [falling, partial curve]
23 | Cn1c(=O)c2[nH]c(C3CCCC3)nc2n(C)c1=O | 0.00501 µM [falling, full curve, poor fit] | 3.98 µM [falling, single point]
24 | C#CCN1C(=O)S/C(=C/C=C/c2ccc(N(C)C)cc2)C1=O | – | 10 µM [rising, partial curve]
25 | CCOC(=O)NCc1ccc(S(=O)(=O)Nc2ccc(C)cc2)cc1 | 35.5 µM [rising, single point] | –
26 | Cc1ccc(C)c(N2CCN(S(=O)(=O)c3ccc(-c4cnc(C5CC5)o4)cc3)CC2)c1 | 5.01 µM [rising, full curve] | –
27 | Cn1c(SCc2c(F)cccc2Cl)nc2c(c1=O)SCC2 | 10 µM [rising, partial curve] | –
28 | COc1ccc(CN(C(=O)c2ccco2)c2ccc(Br)cc2)cc1OC | 7.94 µM [rising, partial curve] | –
29 | O=C(/C=C/Sc1ccccc1)c1ccc(Cl)cc1 | 35.5 µM [falling, single point] | –
30 | COC(=O)c1cc(CSc2nc3ccc(C)cc3[nH]2)oc1C | 12.6 µM [rising, partial curve] | –
31 | CCOc1ccccc1CN1CCc2nc(N3CCN(C)CC3)ncc2C1 | 3.16 µM [falling, partial curve, poor fit] | 14.1 µM [falling, single point]
32 | O=[N+]([O-])c1ccc(/C=C2\CCC(C3=CCCC3)=C2N2CCOCC2)cc1 | 35.5 µM [rising, single point] | 20 µM [rising, single point]
33 | CCOc1cc(NC(=O)c2cccs2)c(OCC)cc1NC(=O)c1cccnc1 | 0.631 µM [falling, partial curve] | 1.58 µM [falling, partial curve]
34 | Cc1cccc(-n2nnc(C(=O)NCc3ccccc3)c2N)c1 | 15.8 µM [rising, single point] | 35.5 µM [rising, single point]
